In article PMC7563694 one finds binding data, which are given here for three substances.

Protein sequences, listed by entry. Tags and fused reporters are not part of them.
UniProt Q99497: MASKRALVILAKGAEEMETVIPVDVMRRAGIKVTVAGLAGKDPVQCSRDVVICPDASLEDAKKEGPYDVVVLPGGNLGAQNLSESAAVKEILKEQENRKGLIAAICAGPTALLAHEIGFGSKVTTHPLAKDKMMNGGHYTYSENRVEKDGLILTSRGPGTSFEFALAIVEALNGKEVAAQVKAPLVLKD
UniProt P11586: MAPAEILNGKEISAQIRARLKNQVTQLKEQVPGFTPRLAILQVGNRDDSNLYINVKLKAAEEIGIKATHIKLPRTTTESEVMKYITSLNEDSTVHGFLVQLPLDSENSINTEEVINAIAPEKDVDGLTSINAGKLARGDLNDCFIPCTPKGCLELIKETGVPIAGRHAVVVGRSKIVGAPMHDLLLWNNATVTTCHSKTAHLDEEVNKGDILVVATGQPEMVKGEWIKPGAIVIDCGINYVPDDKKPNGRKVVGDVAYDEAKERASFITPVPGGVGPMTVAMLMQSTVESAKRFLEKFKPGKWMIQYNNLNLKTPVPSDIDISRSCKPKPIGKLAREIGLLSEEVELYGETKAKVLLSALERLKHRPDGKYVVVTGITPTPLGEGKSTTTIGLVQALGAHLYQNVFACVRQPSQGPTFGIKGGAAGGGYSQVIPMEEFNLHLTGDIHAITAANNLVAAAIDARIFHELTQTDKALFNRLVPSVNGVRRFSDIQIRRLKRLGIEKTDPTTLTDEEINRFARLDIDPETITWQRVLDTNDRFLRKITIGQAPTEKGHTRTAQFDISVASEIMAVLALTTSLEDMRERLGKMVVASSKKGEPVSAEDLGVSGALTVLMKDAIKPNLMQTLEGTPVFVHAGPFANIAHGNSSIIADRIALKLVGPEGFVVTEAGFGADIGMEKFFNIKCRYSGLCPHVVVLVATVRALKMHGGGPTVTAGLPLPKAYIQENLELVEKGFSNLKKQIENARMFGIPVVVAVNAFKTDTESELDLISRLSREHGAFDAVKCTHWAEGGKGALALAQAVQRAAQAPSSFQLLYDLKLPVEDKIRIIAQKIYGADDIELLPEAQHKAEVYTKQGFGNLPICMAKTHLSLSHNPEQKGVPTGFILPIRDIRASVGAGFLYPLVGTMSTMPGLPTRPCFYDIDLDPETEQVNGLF
UniProt Q8TCU6: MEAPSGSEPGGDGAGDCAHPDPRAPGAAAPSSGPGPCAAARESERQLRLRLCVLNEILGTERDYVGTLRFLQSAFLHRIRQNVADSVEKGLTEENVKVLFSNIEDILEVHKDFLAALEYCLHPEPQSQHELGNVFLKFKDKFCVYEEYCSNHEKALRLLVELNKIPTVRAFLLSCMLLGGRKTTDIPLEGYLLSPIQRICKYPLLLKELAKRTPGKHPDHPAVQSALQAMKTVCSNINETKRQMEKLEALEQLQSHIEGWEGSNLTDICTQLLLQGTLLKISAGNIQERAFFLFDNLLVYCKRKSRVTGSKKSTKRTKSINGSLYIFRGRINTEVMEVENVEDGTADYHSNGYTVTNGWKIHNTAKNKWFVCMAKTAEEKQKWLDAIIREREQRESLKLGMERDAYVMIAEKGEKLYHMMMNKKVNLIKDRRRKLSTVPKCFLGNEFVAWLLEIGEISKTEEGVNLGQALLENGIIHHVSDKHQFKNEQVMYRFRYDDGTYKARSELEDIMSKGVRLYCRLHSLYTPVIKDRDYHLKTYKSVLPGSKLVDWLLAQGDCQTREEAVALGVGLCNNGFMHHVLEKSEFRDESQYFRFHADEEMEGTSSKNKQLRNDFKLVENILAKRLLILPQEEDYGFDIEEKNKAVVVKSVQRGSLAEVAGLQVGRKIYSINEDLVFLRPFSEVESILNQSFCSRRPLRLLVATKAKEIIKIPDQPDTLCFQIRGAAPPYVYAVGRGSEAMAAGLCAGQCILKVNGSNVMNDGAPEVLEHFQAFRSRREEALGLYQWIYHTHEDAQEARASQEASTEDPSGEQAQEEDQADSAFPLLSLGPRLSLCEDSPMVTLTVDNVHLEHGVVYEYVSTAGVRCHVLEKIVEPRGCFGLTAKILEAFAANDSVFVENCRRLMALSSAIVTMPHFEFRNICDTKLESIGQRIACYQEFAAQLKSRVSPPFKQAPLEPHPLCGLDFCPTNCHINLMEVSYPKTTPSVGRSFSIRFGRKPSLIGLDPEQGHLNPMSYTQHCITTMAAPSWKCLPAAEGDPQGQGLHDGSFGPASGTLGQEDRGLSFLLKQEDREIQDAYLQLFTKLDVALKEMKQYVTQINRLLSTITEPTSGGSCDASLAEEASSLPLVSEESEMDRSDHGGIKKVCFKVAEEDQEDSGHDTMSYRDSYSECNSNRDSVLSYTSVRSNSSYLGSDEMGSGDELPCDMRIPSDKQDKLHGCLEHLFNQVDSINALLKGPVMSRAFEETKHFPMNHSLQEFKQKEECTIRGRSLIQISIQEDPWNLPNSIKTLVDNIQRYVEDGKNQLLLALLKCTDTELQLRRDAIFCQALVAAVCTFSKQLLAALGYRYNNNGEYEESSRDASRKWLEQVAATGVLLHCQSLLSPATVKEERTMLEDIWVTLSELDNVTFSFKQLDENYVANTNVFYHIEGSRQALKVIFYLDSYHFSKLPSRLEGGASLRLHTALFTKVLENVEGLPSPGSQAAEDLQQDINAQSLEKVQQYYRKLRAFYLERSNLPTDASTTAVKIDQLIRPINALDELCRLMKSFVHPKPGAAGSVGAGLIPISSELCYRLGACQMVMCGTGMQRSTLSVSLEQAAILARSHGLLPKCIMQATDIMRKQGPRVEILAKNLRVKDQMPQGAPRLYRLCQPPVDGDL
UniProt Q00610: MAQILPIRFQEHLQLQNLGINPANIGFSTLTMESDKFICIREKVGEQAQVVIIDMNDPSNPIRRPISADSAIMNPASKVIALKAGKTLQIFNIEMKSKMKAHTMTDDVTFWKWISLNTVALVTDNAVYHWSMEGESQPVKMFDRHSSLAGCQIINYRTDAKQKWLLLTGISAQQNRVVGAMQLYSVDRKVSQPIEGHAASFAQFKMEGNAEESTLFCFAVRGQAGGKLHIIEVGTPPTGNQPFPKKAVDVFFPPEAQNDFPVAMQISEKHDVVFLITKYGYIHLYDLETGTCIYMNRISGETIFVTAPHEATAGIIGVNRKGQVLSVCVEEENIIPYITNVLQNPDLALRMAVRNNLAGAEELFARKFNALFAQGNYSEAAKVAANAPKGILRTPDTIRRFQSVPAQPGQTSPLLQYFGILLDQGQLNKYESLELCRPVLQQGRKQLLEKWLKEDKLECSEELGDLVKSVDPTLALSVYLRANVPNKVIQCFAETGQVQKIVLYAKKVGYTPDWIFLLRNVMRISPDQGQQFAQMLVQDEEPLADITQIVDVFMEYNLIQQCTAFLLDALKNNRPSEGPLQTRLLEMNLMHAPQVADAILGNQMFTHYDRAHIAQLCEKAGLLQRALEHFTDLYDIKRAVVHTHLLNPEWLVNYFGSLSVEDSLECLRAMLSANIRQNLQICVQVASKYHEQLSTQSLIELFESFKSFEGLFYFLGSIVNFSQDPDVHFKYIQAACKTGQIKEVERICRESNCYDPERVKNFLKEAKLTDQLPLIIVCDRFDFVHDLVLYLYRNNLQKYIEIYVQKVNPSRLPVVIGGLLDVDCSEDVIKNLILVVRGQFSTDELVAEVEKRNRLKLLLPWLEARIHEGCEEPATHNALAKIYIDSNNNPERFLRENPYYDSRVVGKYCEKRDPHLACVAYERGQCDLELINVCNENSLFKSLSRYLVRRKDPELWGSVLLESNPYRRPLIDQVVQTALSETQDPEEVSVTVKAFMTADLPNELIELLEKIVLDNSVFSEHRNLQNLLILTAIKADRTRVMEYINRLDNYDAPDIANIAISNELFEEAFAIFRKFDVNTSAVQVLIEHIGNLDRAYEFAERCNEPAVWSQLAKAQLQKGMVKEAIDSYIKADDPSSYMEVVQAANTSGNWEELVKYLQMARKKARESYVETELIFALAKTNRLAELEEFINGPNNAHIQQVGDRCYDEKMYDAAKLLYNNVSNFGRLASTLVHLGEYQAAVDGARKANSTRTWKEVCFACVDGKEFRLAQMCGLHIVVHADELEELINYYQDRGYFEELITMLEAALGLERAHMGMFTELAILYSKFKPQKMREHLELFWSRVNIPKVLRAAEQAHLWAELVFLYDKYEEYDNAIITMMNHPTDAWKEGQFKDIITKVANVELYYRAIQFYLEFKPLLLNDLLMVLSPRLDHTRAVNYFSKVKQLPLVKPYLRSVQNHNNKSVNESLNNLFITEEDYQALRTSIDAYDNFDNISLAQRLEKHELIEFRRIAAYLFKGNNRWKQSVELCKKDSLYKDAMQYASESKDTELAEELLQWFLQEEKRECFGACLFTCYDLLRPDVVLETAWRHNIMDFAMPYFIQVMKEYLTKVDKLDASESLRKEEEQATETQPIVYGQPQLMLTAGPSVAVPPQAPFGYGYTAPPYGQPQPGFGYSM

No constants are given. Whether binding was seen depends on the method and setting. In cells and extracts the contact can be indirect. These calls come from enrichment with a bait or labelling near it, and not all partners need be listed.

For the assay, the target named is Protein DJ-1 (human (endogenous in MCF7)) (UniProt Q99497). The experiment in a line: affinity purification with mass spectrometry; anti-DJ-1 antibody and Protein A/G PLUS-Agarose on 100 µg nuclear extract of MCF7 cells, 4 °C; SDS-PAGE, gel slices, LC-MS/MS; proteins also found in the Mock-IP (resin only) removed from the list.
As to “methylenetetrahydrofolate dehydrogenase (from UniProt P11586 1-935)”, the binding entry was “binds”.
Turning to “Phosphatidylinositol 3,4,5-trisphosphate-dependent Rac exchanger 1 protein (from UniProt Q8TCU6 1-1659)”, the binding entry is “binds”.
Under “Clathrin heavy chain 1 (from UniProt Q00610 1-1675)” stands “binds”.
